{"source": "paper PMC11352932", "about": "“Enhancing Maturation and Translatability of Human Pluripotent Stem Cell-Derived Cardiomyocytes through a Novel Medium Containing Acetyl-CoA Carboxylase 2 Inhibitor” (Cells, 2024)", "test_system": "hiPSC-CMs", "test": "In vitro hypertrophy model, ET-1 stimulation", "format": "cell-based, human", "method": "After 2 weeks in either standard or maturation media, medium was switched to hypertrophy stimulation medium composed of RPMI no glucose supplemented with B27 plus insulin, 5.5 mM glucose and 10 nM endothelin-1 (ET-1, E7764). hPSC-CMs were cultured for 48 h in this medium before their use for further analyses.\nCell area, circularity index, and aspect ratio were determined with FIJI (ImageJ v.2.14.0) software using standard analysis plugins. For each condition, at least 60 cells were analyzed.\nRNA extraction was performed using the Agencourt RNAdvance Cell V2 kit (catalog no. A47942, Beckman Coulter, Bromma, Sweden) according to the manufacturer’s instructions. RNA quality was assessed using the Fragment Analyzer Standard Sensitivity RNA kit from Agilent Technologies, ensuring an RNA integrity number greater than 7. […] Sequenced reads were quality-controlled with the FastQC software and pre-processed with Trim Galore. Processed reads from iCell cardiomyocytes^2 and Chips22 were aligned to the reference genome GRCh37 with the STAR aligner, and Tophat2 with Bowties was used to map IPS C32 reads to GRCh38. Read counts for the genes were generated using the featureCounts library and normalized FPKM values calculated with StringTie. […]"}
{"substance": "endothelin-1 [ET-1]", "values": [{"measurement": "number of DEGs, ET-1-treated vs non-treated", "setting": "cells cultured in maturation medium", "result": 1171}, {"measurement": "number of DEGs, ET-1-treated vs non-treated", "setting": "cells cultured in standard medium", "result": 527}]}
